For this experiment, the target named is pUL97-FLAG (HCMV pUL97, wild type, FLAG-tagged) (HCMV (human cytomegalovirus)) (UniProt P16788). The experiment is described as follows: affinity purification with mass spectrometry; host proteins enriched with ectopically expressed pUL97-FLAG in NPCs by immunoprecipitation with anti-FLAG antibody, then LC-MS/MS.

Protein sequences, listed by entry. Tags and fused reporters are not part of them.
UniProt P16788: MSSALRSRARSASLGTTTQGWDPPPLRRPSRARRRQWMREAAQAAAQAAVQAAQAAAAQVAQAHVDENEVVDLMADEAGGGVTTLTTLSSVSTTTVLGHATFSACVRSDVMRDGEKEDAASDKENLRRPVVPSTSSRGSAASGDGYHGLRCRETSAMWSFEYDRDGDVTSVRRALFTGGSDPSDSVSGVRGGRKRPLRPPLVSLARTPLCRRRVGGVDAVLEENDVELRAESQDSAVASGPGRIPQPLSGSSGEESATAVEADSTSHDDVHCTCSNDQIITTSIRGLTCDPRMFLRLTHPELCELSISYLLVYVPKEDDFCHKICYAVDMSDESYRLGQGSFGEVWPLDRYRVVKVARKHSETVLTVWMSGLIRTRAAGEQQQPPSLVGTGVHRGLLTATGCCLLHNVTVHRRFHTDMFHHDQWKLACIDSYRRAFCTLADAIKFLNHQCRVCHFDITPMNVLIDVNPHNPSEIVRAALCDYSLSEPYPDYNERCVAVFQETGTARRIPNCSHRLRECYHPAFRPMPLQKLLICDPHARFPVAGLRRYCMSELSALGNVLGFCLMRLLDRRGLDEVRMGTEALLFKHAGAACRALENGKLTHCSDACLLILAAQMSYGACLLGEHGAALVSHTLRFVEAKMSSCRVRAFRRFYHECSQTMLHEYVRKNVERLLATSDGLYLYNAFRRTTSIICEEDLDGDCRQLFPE

No constants are given. Whether binding was seen depends on the method and setting. Binding seen in cells or lysates may run through a third protein. These calls come from enrichment with a bait or labelling near it, and not all partners need be listed.

B1: regulatory factor X 7 (RFX7) (protein, UniProt Q2KHR2 1-1460)
chain: MAEEQQQPPPQQPDAHQQLPPSAPNSGVALPALVPGLPGTEASALQHKIKNSICKTVQSKVDCILQEVEKFTDLEKLYLYLQLPSGLSNGEKSDQNAMSSSRAQQMHAFSWIRNTLEEHPETSLPKQEVYDEYKSYCDNLGYHPLSAADFGKIMKNVFPNMKARRLGTRGKSKYCYSGLRKKAFVHMPTLPNLDFHKTGDGLEGAEPSGQLQNIDEEVISSACRLVCEWAQKVLSQPFDTVLELARFLVKSHYIGTKSMAALTVMAAAPAGMKGITQPSAFIPTAESNSFQPQVKTLPSPIDAKQQLQRKIQKKQQEQKLQSPLPGESAAKKSESATSNGVTNLPNGNPSILSPQPIGIVVAAVPSPIPVQRTRQLVTSPSPMSSSDGKVLPLNVQVVTQHMQSVKQAPKTPQNVPASPGGDRSARHRYPQILPKPANTSALTIRSPTTVLFTSSPIKTAVVPASHMSSLNVVKMTTISLTPSNSNTPLKHSASVSSATGTTEESRSVPQIKNGSVVSLQSPGSRSSSAGGTSAVEVKVEPETSSDEHPVQCQENSDEAKAPQTPSALLGQKSNTDGALQKPSNEGVIEIKATKVCDQRTKCKSRCNEMLPGTSTGNNQSTITLSVASQNLTFTSSSSPPNGDSINKDPKLCTKSPRKRLSSTLQETQVPPVKKPIVEQLSAATIEGQKQGSVKKDQKVPHSGKTEGSTAGAQIPSKVSVNVSSHIGANQPLNSSALVISDSALEQQTTPSSSPDIKVKLEGSVFLLDSDSKSVGSFNPNGWQQITKDSEFISASCEQQQDISVMTIPEHSDINDLEKSVWELEGMPQDTYSQQLHSQIQESSLNQIQAHSSDQLPLQSELKEFEPSVSQTNESYFPFDDELTQDSIVEELVLMEQQMSMNNSHSYGNCLGMTLQSQSVTPGAPMSSHTSSTHFYHPIHSNGTPIHTPTPTPTPTPTPTPTPTPTSEMIAGSQSLSRESPCSRLAQTTPVDSALGSSRHTPIGTPHSNCSSSVPPSPVECRNPFAFTPISSSMAYHDASIVSSSPVKPMQRPMATHPDKTKLEWMNNGYSGVGNSSVSGHGILPSYQELVEDRFRKPHAFAVPGQSYQSQSRHHDTHFGRLTPVSPVQHQGATVNNTNKQEGFAVPAPLDNKGTNSSASSNFRCRSVSPAVHRQRNLSGSTLYPVSNIPRSNVTPFGSPVTPEVHVFTNVHTDACANNIAQRSQSVPLTVMMQTAFPNALQKQANSKKITNVLLSKLDSDNDDAVRGLGMNNLPSNYTARMNLTQILEPSTVFPSANPQNMIDSSTSVYEFQTPSYLTKSNSTGQINFSPGDNQAQSEIGEQQLDFNSTVKDLLSGDSLQTNQQLVGQGASDLTNTASDFSSDIRLSSELSGSINDLNTLDPNLLFDPGRQQGQDDEATLEELKNDPLFQQICSESMNSMTSSGFEWIESKDHPTVEMLG
B1: the binding result was “binds”.

For the origin of these results see publication PMC9942973.
